Assay results as given in patent US20210047417A1.

Columns and labels:
[1] = target: MICA*04 allele expressed on TRAMP-C2 cells (TC2-MICA-04); test: cell staining / flow cytometry (legend of FIG. 3)
[2] = target: Recombinant MICA*01 protein (Homo sapiens (Human)); test: ELISA, antigen coated, PDI-1 0-1 µg/ml (legend of FIG. 2)
[3] = target: Recombinant MICA*02 protein; test: as above
[4] = target: Recombinant MICA*04 protein; test: as above
[5] = target: Recombinant MICA*08 protein; test: as above
[6] = target: Recombinant MICA*09 protein; test: as above
[7] = target: MICA*04 allele expressed on TRAMP-C2 cells (TC2-MICA-04); test: flow cytometry on TRAMP-C2 cells stably expressing MICA*04, 500 ng PDI-1 in 100 µl, PE anti-mouse IgG secondary

Measured: binding

B1: Anti-MICA/B Monoclonal Antibody (PDI-1) (antibody, mouse IgG2a, kappa, V domains shown)
VH: QIQLVQSGPELKKSGETVKISCKAFGYTFTNYGMNWVKQAPGKGLKWMGWINTYTGEPTYADDFKGRFAFSLETSASTAYLQINHLKNEDTATYFCARNYGNYLFDYWGQGTTLTVSS
VL: DIQMTQTTSSLSASLGDRVTISCSASQGISNYLNWYQQKPDGTLKLLIQYTSLLHSGVPSRFSGSGSGTEYSLTISNLEPEDIATYFCQQYSKFPRTFGGGTKLEIKR
binds: all assays above

No constants are given. Whether binding was seen depends on the method and setting. A result given as binding can be weak or reduced; the word gives no strength.
